Test results from the supplement of paper PMC10727501.
The other results are listed elsewhere or left out. Repeats in this data set agree poorly, so a single value says little.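 Free-swimming zebrafish larvae were scored for O-bend response probability to dark flashes (naive: first five; training: remaining flashes of four 60-flash blocks; test: later 60-flash block) and for turning toward alternating leftward/rightward LED motion (OMR). Six treated larvae were compared with sixty 0.1% DMSO controls; |SSMD|≥2 defined a hit.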

Each compound was assayed on Danio rerio larvae (5 dpf, TLF) (assay: Prob-Train (SSMD vs DMSO vehicle); higher = higher than vehicle (e.g. higher dark-flash O-bend response probability, or better optomotor performance)). Conditions: 10 µM; pre-incubation: 30-90 min.

SMILES | Prob-Train
CCc1cccc(CC)c1NC(=O)N1Cc2[nH]nc(NC(=O)c3ccc(N4CCN(C)CC4)cc3)c2C1 | -0.229
CCCc1nn(C)c2c(=O)[nH]c(-c3cc(S(=O)(=O)N4CCN(C)CC4)ccc3OCC)nc12.O=C(O)CC(O)(CC(=O)O)C(=O)O [Sildenafil Citrate] | -0.226
N#Cc1c(O)c2c(-c3ccc(-c4ccccc4O)cc3)csc2[nH]c1=O | 0.417
COc1cc(N2CCC(N)CC2)ccc1Nc1ncc(Cl)c(-c2c[nH]c3ccccc23)n1 | 0.417
COc1ccc(C2=NC(c3ccc(Cl)cc3)C(c3ccc(Cl)cc3)N2C(=O)N2CCNC(=O)C2)c(OC(C)C)c1 (configuration not stated) [Nutlin-3] | -0.366
O=C1c2ccc(Nc3ccc(F)cc3F)cc2CCc2ccc(OC[C@H](O)CO)cc21 [Skepinone-L] | -0.383
O=C1NC(=O)/C(=C/c2ccc(-c3ccc(F)cc3O)o2)S1 | -0.754
Cc1c(Cc2ccc3ccccc3n2)c2cc(F)ccc2n1CC(=O)O | 0.102
Cc1onc(-c2ccccc2)c1-c1ccc(S(N)(=O)=O)cc1 [Valdecoxib] | -0.138
Cc1ccnc2c1NC(=O)c1cccnc1N2C1CC1 [Nevirapine] | 0.0721
COc1ccc(C(=O)CC(=O)c2ccc(C(C)(C)C)cc2)cc1 [Avobenzone] | -0.854
COCCOc1ccc2c(c1)ncn2-c1ccc2cccc(N3CCC(N)CC3)c2n1 | -0.0543

Three structures out of the list, ordered by count of non-hydrogen atoms, falling:
SMILES | Prob-Train
COc1ccc(C2=NC(c3ccc(Cl)cc3)C(c3ccc(Cl)cc3)N2C(=O)N2CCNC(=O)C2)c(OC(C)C)c1 (configuration not stated) [Nutlin-3] | -0.366
O=C1c2ccc(Nc3ccc(F)cc3F)cc2CCc2ccc(OC[C@H](O)CO)cc21 [Skepinone-L] | -0.383
Cc1ccnc2c1NC(=O)c1cccnc1N2C1CC1 [Nevirapine] | 0.0721
